From US20110263827A1 come the findings set out here.

By UniProt entry, the sequences of proteins in these tests, tags left out. Where a name states a change or a piece, a line headed by the entry shows the natural chain unless it says otherwise. Chains listed by the source or under a name are the forms on record and can include a tag or linker. Residues count along the entry.
UniProt P14210, residues 32-728: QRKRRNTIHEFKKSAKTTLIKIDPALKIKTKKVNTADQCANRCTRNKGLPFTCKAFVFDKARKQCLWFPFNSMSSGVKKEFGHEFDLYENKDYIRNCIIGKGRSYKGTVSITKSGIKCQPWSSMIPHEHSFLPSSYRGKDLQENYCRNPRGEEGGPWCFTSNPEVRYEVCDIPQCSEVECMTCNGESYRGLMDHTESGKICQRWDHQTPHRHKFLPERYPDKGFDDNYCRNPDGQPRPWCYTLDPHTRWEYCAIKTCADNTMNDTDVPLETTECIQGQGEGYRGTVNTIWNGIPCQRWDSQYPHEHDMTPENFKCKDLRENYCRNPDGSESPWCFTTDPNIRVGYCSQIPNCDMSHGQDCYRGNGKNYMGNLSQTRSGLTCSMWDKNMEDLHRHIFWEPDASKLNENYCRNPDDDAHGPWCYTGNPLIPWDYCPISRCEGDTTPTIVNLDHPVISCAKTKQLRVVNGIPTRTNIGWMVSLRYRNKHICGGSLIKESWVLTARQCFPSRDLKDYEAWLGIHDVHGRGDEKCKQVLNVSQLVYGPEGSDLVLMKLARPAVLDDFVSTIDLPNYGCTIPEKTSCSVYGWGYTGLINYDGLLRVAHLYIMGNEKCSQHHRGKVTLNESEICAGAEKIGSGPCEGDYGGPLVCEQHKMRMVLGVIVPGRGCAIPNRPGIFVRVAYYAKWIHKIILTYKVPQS
PLGF (P49763, form named): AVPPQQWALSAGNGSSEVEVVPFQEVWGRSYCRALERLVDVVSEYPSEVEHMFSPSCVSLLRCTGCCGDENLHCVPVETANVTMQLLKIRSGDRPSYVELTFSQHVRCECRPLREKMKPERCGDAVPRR

No constants are given. Whether binding was seen depends on the method and setting. Some entries that bind do so weakly or less than the wild type.

In assay [1] the target is HGF (UniProt P14210). As to the kind of experiment: direct bind ELISA. On the technique in general: In an ELISA, binding on a coated surface is turned into a signal by an enzyme label.
Assay [2] addresses PLGF (UniProt P49763). Nature of the assay: direct bind ELISA.

B1: DVD777 (bispecific antibody)
VH: QVQLQESGPGLVKPSQTLSLTCTVSGYSISSDFAWNWIRQPPGKGLEWMGYISYSGNTRYQPSLKSRITISRDTSKNQFFLKLNSVTAADTATYYCVTAGRGFPYWGQGTLVTVSSASTKGPSVFPLAPQVQLVESGGGLVKPGGSLRLSCAASGFTFSDYYMSWIRQAPGKGLEWVSYISSSGSTIYYADSVKGRFTISRDNAKNSLYLQMNSLRAEDTAVYYCARDEYNSGWYVLFDYWGQGTLVTVSS
VL: DIQMTQSPSSMSVSVGDRVTITCHSSQDINSNIGWLQQKPGKSFKGLIYHGTNLDDGVPSRFSGSGSGTDYTLTISSLQPEDFATYYCVQYAQFPWTFGGGTKLEIKRTVAAPSVFIFPPDIQMTQSPSSVSASVGDRVTITCRASQGISSWLAWYQQKPGKAPNLLIYEASSLQSGVPSRFGGSGSGTDFTLTISSLQPEDFATYYCQQANGFPWTFGQGTKVEIKR
For the molecule B1, the binding entry in assay [1] is recorded as “binds”.

B2: DVD341 (bispecific antibody)
VH: QVQLQESGPGLVKPSQTLSLTCTVSGYSISSDFAWNWIRQPPGKGLEWMGYISYSGNTRYQPSLKSRITISRDTSKNQFFLKLNSVTAADTATYYCVTAGRGFPYWGQGTLVTVSSASTKGPQVQLQQSGAELVKPGASVKISCKASGYTFTDYYINWVKLAPGQGLEWIGWIYPGSGNTKYNEKFKGKATLTIDTSSSTAYMQLSSLTSEDTAVYFCVRDSPFFDYWGQGTLLTVSS
VL: DIQMTQSPSSMSVSVGDRVTITCHSSQDINSNIGWLQQKPGKSFKGLIYHGTNLDDGVPSRFSGSGSGTDYTLTISSLQPEDFATYYCVQYAQFPWTFGGGTKLEIKRTVAAPDIVLTQSPDSLAVSLGERVTMNCKSSQSLLNSGMRKSFLAWYQQKPGQSPKLLIYWASTRESGVPDRFTGSGSGTDFTLTISSVQAEDVAVYYCKQSYHLFTFGSGTKLEIKR
With B2, the binding entry in assay [2] was “binds”.

B3: DVD813 (bispecific antibody)
VH: QVQLQESGPGLVKPSQTLSLTCTVSGYSISSDFAWNWIRQPPGKGLEWMGYISYSGNTRYQPSLKSRITISRDTSKNQFFLKLNSVTAADTATYYCVTAGRGFPYWGQGTLVTVSSASTKGPSVFPLAPQVQLQQSGAELVKPGASVKISCKASGYTFTDYYINWVKLAPGQGLEWIGWIYPGSGNTKYNEKFKGKATLTIDTSSSTAYMQLSSLTSEDTAVYFCVRDSPFFDYWGQGTLLTVSS
VL: B2 VL
With B3, in assay [2], the binding result was “binds”.

B4: DVD843 (bispecific antibody)
VH: B2 VH
VL: DIQMTQSPSSMSVSVGDRVTITCHSSQDINSNIGWLQQKPGKSFKGLIYHGTNLDDGVPSRFSGSGSGTDYTLTISSLQPEDFATYYCVQYAQFPWTFGGGTKLEIKRTVAAPSVFIFPPDIVLTQSPDSLAVSLGERVTMNCKSSQSLLNSGMRKSFLAWYQQKPGQSPKLLIYWASTRESGVPDRFTGSGSGTDFTLTISSVQAEDVAVYYCKQSYHLFTFGSGTKLEIKR
Take B4: the binding result in assay [2] was “binds”.

B5: DVD783 (bispecific antibody)
VH: B3 VH
VL: B4 VL
Regarding B5, the binding result in assay [2] is on record as “binds”.
